{"source": "patent US20260034135A1", "about": "“USE OF N6-BENZYLAMINOPURINE AS AN APPETITE SUPPRESSANT” (THE GOVERNING COUNCIL OF THE UNIVERSITY OF TORONTO, priority 2022, published 2026)", "test": "BAP in the drinking water in CD-1 mice: body weight and water intake", "assay_type": "in vivo", "experimental": "All protocols using mice were approved by the University Animal Care Committee of the University of Toronto and were performed in accordance with the Canadian Council on Animal Care. Animal experiments were performed in three separate animal facilities: Medical Sciences Building (MSB), Centre for Cellular and Biomolecular Research (CCBR) and the Biological Sciences Facility (BSF) due to ongoing construction and housing changes. Facilities and dates are indicated in each experimental cohort. N6-benzylaminopurine (BAP; also called N6-benzyladenine) was obtained from Sigma (B3408, cell culture grade in powder form; CAS number 1214-39-7). Male and female CD-1 mice aged 6-7 weeks were acquired from Charles Rivers and acclimated on a chow diet for one week prior to experimentation. Mice were then weight-matched and placed on either a 60% high fat diet (HFD) or sucrose-matched control diet for 4 weeks (from Research Diets: 60% HFD D12492 and the sucrose-matched control diet […]). After 3 weeks on the diet, mice were acclimated for one week to the drinking apparatus, a 50 mL canonical tube with a drinking tube. After 4 weeks on the diet, the mice were again weight-matched and randomly assigned to either the control or BAP group. […] RNA was isolated from the collected hypothalamic and used to quantify gene expression via qRT-PCR."}
{"smiles": "c1ccc(CNc2ncnc3nc[nH]c23)cc1", "note": "[BAP, N6-benzylaminopurine]", "values": [{"measurement": "water (solution) intake vs control", "setting": "female CD-1, regardless of diet, 10 mM BAP in drinking water with erythritol", "value": "drink significantly less"}, {"measurement": "water intake vs control", "setting": "male CD-1, regardless of diet, 10 mM BAP in drinking water with 2% erythritol", "value": "drink less water"}]}
